Source: patent US12115176B2, “Methods and compositions relating to ClbP inhibition” (PRESIDENT AND FELLOWS OF HARVARD COLLEGE, priority 2021, dated 2024)
Entries after “also recorded” stand apart in the source; their conditions may differ. Some of these results come from one statement about several compounds together.

Chains of the proteins cited; added tags and fusions are not shown.
UniProt Q0P7K6, entry or part of it: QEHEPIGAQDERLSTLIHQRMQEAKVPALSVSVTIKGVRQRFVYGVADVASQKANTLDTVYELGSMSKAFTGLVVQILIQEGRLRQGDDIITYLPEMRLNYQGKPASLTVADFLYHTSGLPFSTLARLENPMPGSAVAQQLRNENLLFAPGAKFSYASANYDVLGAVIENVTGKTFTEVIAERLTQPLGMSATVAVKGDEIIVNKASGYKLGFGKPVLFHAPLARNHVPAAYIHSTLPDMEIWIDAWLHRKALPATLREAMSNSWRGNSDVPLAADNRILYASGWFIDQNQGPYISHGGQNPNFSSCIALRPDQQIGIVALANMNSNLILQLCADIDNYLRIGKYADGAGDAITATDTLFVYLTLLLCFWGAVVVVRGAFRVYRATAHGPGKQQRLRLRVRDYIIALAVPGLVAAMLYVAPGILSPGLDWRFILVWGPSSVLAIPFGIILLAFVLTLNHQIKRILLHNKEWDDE

Legend:
[1] = tested on: HeLa cells; experiment: HeLa cell survival assay; format: cell-based, human; conditions: 20 hours of exposure, FIG. 16
Protocol: HeLa cells were maintained as described in the General Tissue Culture Methods section. After trypsinization and counting, cells were distributed in to the wells of a 96-well plate with media containing the indicated concentration of the synthetic compound and 1% DMSO (or DMSO alone) at 5000 cells per well. After 20 hours, cell viability was determined using the CellTiter-Glo® 3D Cell Viability Assay kit (Promega) following the manufacturer's instructions and measuring luminescence on a Bio-Tek Synergy HTX™ multimode plate reader.

[2] = tested on: serine hydrolases in HEK293T cell lysates; experiment: Gel-based ABPP with fluorophosphonate probe (FP); format: binding, human; conditions: inhibitor up to 100 μM
Description: (§1) To further explore other possible targets of inhibitors 1-4, an activity-based protein profiling (ABPP) approach was used to assay their activity against a wide variety of serine hydrolases in bacterial and mammalian proteomes. […] One limitation of this assay is that ClbP is not labeled by the FP probe, so it cannot be observed as a reference for binding. Any other proteins which evade labeling by FP would also not be detected in this assay.
(§2) Activity-Based Protein Profiling. Bacterial or mammalian cell lysates were normalized to 1 mg/mL protein concentrations in PBS using the DC protein assay (Bio-Rad). 50 μL aliquots of lysates were incubated with compounds at the indicated concentrations (1 μL of a 50X stock in DMSO) for 30 minutes at room temperature and subsequently labeled with 5 μM of fluorophosphonate-PEG(4)-biotin probe (1 μL of a 50X stock in DMSO, synthesized as previously reported)^56 for 1 hour at room temperature. The reactions were mixed with 50 μL of 2X SDS protein loading buffer, boiled for 10 minutes at 95° C., and separated by SDS-PAGE. The labeled proteins were detected by IRdye-conjugated streptavidin (Li-Cor) and visualized using the GellOdyssey™ Imaging System (Li-Cor).^56

[3] = tested on: serine hydrolases in E. coli cell lysates; experiment: Gel-based ABPP with fluorophosphonate probe (FP); format: binding; conditions: inhibitor up to 100 μM
Description: as §1, §2

[4] = target: E. coli BL21 overexpressing ClbP (Escherichia coli, UniProt Q0P7K6); experiment: ClbP fluorescence activity assay (live cells); format: cell-based
Protocol: ClbP fluorescence activity assay (live cells). One 5 mL starter culture each E. coli BL21 pET-29b-ClbP and pET-29b-ClbP-S95A were inoculated from frozen stocks and grown overnight at 37° C. in LB medium supplemented with 50 μg/ml kanamycin (LB+kan). Overnight cultures were diluted 1:100 in fresh LB+kan and incubated at 37° C. to an OD600 of 0.3, at which point protein expression was induced by the addition of 500 μM isopropyl β-D-1-thiogalactopyranoside (IPTG) and cultures were moved to 15° C. for 4 hours. Cultures were then aliquoted in a black 384-well plate and the appropriate concentration of inhibitor was added as a DMSO stocks to a final concentration of 1% DMSO in a volume of 30 μL. Reactions were initiated by the addition of 10 μL of LB+kan+IPTG containing the fluorogenic substrate (final concentration=100 μM). Plastes were incubated at 25° C. with intermittent shaking while taking regular fluorescence measurements in a Bio-Tek Synergy HTX multimode plate reader with an excitation filter of 360/40 nm and an emission filter of 440/20 nm. “% activity” was determined based on the formula above using RFU measurements after 7 hours.

[5] = target: purified ClbP (Escherichia coli, UniProt Q0P7K6); experiment: ClbP fluorescence activity assay (in vitro); format: biochemical, Escherichia coli CFT073; conditions: for slow-binding kinetics (potency versus preincubation time) / time to reach maximum potency: 100 nM inhibitor, varying preincubation with ClbP; for ClbP activity with fluorescent substrate analog, in words: in vitro
Description: Constructs and protein purification for in vitro assays. ClbP constructs described in this publication were derived from a previously described plasmid containing the Escherichia coli CFT073 ClbP sequence (GenBank ID: NP_754344.1) inserted between the NdeI and XhoI restriction sites of pET29b (Addgene plasmid #48244).^14 All in vitro experiments used a construct bearing a C-terminal 10×His tag. This longer polyhistidine-tag was obtained by extension of the previously described 6×His tag through site-directed mutagenesis. All site-directed mutations were introduced using the Quikchange mutagenesis protocol (Stratagene) and confirmed by Sanger DNA sequencing of the whole open reading frame. Plasmids were transformed into chemically competent C41(DE3) (Lucigen) cells and proteins were isolated as previously described.^34
ClbP fluorescence activity assay (in vitro). Assays were performed in a buffer containing 50 mM Tris, 200 mM NaCl, 0.02% w/v DDM at pH 8.0 with 25 nM purified ClbP and 25 μM fluorogenic substrate in a total volume of 20 μL.^34 Purified ClbP was defrosted on ice from stocks stored at −80° C. Stocks were diluted to 50 nM enzyme in assay buffer in the wells of a black, flat-bottom 384-well plate and the appropriate inhibitor in DMSO or DMSO was added to a final concentration of 1%. For experiments testing different inhibitor concentrations, reactions were allowed to sit for 1 hour at room temperature. For experiments testing different preincubation times, the inhibitor in DMSO was added to each reaction X minutes before initiating the reaction, where X is the time indicated on the x-axis for that sample. For experiments to test whether hydrolysis of the boronic ester was rate-limiting, the inhibitor was added to buffer with no enzyme present and allowed to sit at room temperature for the time indicated before adding the enzyme. In all cases, reactions were initiated by the addition of 10 μL, of buffer containing the 50 μM fluorogenic substrate to achieve a final concentration of 25 μM and pipetting once with a multichannel pipette to mix. Reaction progress was monitored in a plate reader (Bio-Tek Synergy HTX multimode plate reader) with an excitation filter of 360/40 nm and an emission filter of 440/20 nm. “% activity” was determined based on the measured relative fluorescence units (RFU) of each condition after 1 hour using the following formula: […]

[6] = tested on: ClbP; experiment: LC-MS quantitation of N-myristoyl-D-Asn produced by pks+ E. coli; format: cell-based, E. coli BW25113 BACpks; conditions: pks+ E. coli (BW pks), versus DMSO
Protocol: LC-MS quantitation of N-myristoyl-D-Asn produced by pks^+ E. coli. One 5 mL starter culture each of E. coli BW25113 BACpks and E. coli BW25113 BACpksΔclbP was inoculated from frozen stocks and grown overnight at 37° C. in LB medium supplemented with 35 μg/ml chloramphenicol (LB+cam). Overnights were diluted 1:100 in fresh LB+cam+1% DMSO with the appropriate concentration of inhibitor and grown for 20 hours at 37° C. in a deep well plate in a shaking incubator. A 500 μL aliquot was taken from each sample, flash frozen in liquid nitrogen and lyophilized to dryness. Lyophilized pellets were extracted with 500 μL LC-MS grade methanol which contained 100 nM d27-N-myristoyl-D-asparagine as an internal standard, prepared as previously described, and vortexed for 30 seconds. After centrifugation at 16,500×g for 10 minutes in a tabletop microcentrifuge, supernatants were transferred to fresh 1.5 mL tubes and stored at −20° C. overnight. Samples were centrifuged again, and the supernatants analyzed by LC-MS/MS on a Waters Xevo TQ-S UPLC-triple quadrupole mass spectrometer using an Agilent Poroshell 120 EC-C18 column (2.7 μm, 4.6 mm×50 mm). The conditions were as follows: 0.6 mL/minute flow rate, 5 μL, injection, 10% solvent B in solvent A for 1 min, a linear gradient increasing to 90% solvent B in solvent A over 2 min, 90% solvent B in solvent A for 1.5 min, followed by a linear gradient to 2% solvent B in solvent A over 30 seconds, and re-equilibration in at 2% s solvent B for 1 minute. (solvent A=95:5 water/methanol+0.03% ammonium hydroxide; solvent B=80:15:5 isopropanol/methanol/water; flow rate 0.6 mL/min, 5 μL injection). The mass spectrometer was run in negative mode MRM with a Cone voltage of 2V, monitoring transitions of m/z 341→m/z 114 (retention time (rt)=3.3 minutes, Collision Energy (CE)=20 V) for the prodrug scaffold and m/z 368→m/z 114 (rt=3.3 minutes, CE=22 V) for the deuterated internal standard. Data analysis was conducted using the TargetLynx software platform (Waters) and Microsoft Excel. For all samples, peak areas for the m/z 341→m/z 114 were normalized to the m/z 368→m/z 114 transition for the same sample, and then normalized values compared to a standard curve of unlabeled N-myristoyl-D-asparagine containing 100 nM d27-N-myristoyl-D-asparagine, which was run in triplicate.

Structure (SMILES) | concentration without cytotoxic activity toward mammalian cell lines [1] [µM] | change in protein labeling by FP probe [2] | change in protein labeling by FP probe [3] | ClbP activity with fluorescent substrate analog, in words [4] | slow-binding kinetics (potency versus preincubation time) [5] | ClbP activity with fluorescent substrate analog, in words [5] | quantity of N-myristoyl-D-Asn prodrug released [6] | time to reach maximum potency [5] [min]
CC1(C)OB([C@@H](CC(N)=O)NC(=O)c2ccccc2)OC1(C)C [Compound 4] | > 10000 | no visible changes in protein labeling by FP; also recorded: no inhibition of other serine hydrolases | no visible changes in protein labeling by FP; also recorded: no inhibition of other serine hydrolases | inhibit ClbP's activity | exhibit slow-binding kinetics | inhibit ClbP's activity | block release of the prodrug motif | –
CCCCCC(=O)N[C@H](CC(N)=O)B1OC(C)(C)C(C)(C)O1 [Compound 1] | > 10000 | no visible changes in protein labeling by FP; also recorded: no inhibition of other serine hydrolases | no visible changes in protein labeling by FP; also recorded: no inhibition of other serine hydrolases | inhibit ClbP's activity | exhibit slow-binding kinetics | inhibit ClbP's activity | block release of the prodrug motif | ≤ 30
CC1(C)OB([C@@H](CC(N)=O)NC(=O)CCCc2ccccc2)OC1(C)C [Compound 3] | > 10000 | no visible changes in protein labeling by FP; also recorded: no inhibition of other serine hydrolases | no visible changes in protein labeling by FP; also recorded: no inhibition of other serine hydrolases | inhibit ClbP's activity | exhibit slow-binding kinetics | inhibit ClbP's activity | block release of the prodrug motif | ≤ 30
CC1(C)OB([C@@H](CC(N)=O)NC(=O)c2ccc3ccccc3c2)OC1(C)C [Compound 2] | > 10000 | no visible changes in protein labeling by FP; also recorded: no inhibition of other serine hydrolases | no visible changes in protein labeling by FP; also recorded: no inhibition of other serine hydrolases | inhibit ClbP's activity | exhibit slow-binding kinetics | inhibit ClbP's activity | block release of the prodrug motif | ≤ 30
